Data published in patent US6974816B2, “Combination for the treatment of endothelial damage” (Licentia Ltd., priority 2001, dated 2005).

Test: Serum lipid profile
Assay type: in vivo, New Zealand White rabbits
Conditions: mean ± SEM

Cc1ccc(NC(=O)c2ccc(CN3CCN(C)CC3)cc2)cc1Nc1nccc(-c2cccnc2)n1 [STI571, N-{5-[4-(4-methyl-piperazino-methyl)-benzoylamido]-2-methylphenyl}-4-(3-pyridyl)-2-pyrimidine-amine]
Lipids: HDL (3-week endpoint): 0.69 ± 0.11 mM
Lipids: LDL (3-week endpoint): 10.2 ± 2.3 mM
Lipids: S-Chol (3-week endpoint, serum cholesterol): 11.7 ± 2.4 mM
Lipids: S-TG (3-week endpoint, serum triglyceride): 1.8 ± 0.3 mM
Lipids: HDL (6-week end point): 0.53 ± 0.05 mM
Lipids: LDL (6-week end point): 14.5 ± 3.2 mM
Lipids: S-Chol (6-week end point): 16.5 ± 3.5 mM
Lipids: S-TG (6-week end point): 3.3 ± 0.6 mM
